Taken from: PubChem BioAssay AID1053208 (Peter MacCallum Cancer Centre, 2014)

Assay: 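Genes whose silencing cuts survival of bone tumour cells only with doxorubicin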 (primary screen)
Cell system: mouse osteosarcoma cells, early-passage culture from an engineered mouse model of fibroblastic bone tumour
Knock-down reagent: siRNA pool against mouse genes, 40 nM
Duration: about 120 h (48 h before drug, then 72 h with drug)
Conditions: doxorubicin 100 nM for 72 h, roughly 30-40% inhibitory dose
Detection: 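Viability read as ATP luminescence after 72 h of 100 nM doxorubicin or none, duplicate wells averaged, scaled to non-targeting siRNA, then expressed as robust z-scores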
Reading the numbers: viability z-score with doxorubicin and doxorubicin viability vs non-targeting: higher = more viable cells under doxorubicin; viability z-score without drug: higher = more viable cells with knock-down alone; z-score of drug to no-drug ratio: higher = less drug sensitisation by knock-down
Active means: 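Called active if knock-down leaves viability unchanged without drug (z within -2 to 2) but lowers it with doxorubicin (z at or under -2)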
The deposit covers about 17,000 reagents; this is a random part of them. 788 of them (4.7%) count as active. 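Calls rest on z-score classes alone; an extra cut-off of viability at most 70% of control was not applied to them.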 A number with no mark means an inactive call.

| Target gene | combined z-score class | viability z-score with doxorubicin | viability z-score without drug | z-score of drug to no-drug ratio | doxorubicin viability vs non-targeting |
| --- | --- | --- | --- | --- | --- |
| Smpdl3b | high cell count with doxorubicin only | 2.59 | 0.17 | 2.7 | 1.17 |
| Nrip3 | no change with or without drug | -0.45 | -0.51 | 0 | 0.9 |
| Zfp467 | no change with or without drug | -1.12 | 0.84 | -1.57 | 0.84 |
| Emp2 | no change with or without drug | 0 | 0.67 | -0.34 | 0.94 |
| Yrdc | no change with or without drug | 0 | -1.69 | 1.46 | 0.94 |
| Kcnk5 | no change with or without drug | -1.24 | -1.85 | 0.11 | 0.83 |
| Ces2c | low cell count with doxorubicin only (active) | -2.7 | 0.51 | -3.04 | 0.7 |
| Or8b12 | no change with or without drug | 0 | -0.51 | 0.45 | 0.94 |
| Eif3d | low cell count with and without drug | -2.36 | -4.22 | 0.67 | 0.73 |
| H2-T23 | no change with or without drug | -0.56 | -0.51 | -0.11 | 0.89 |
| Crhr1 | no change with or without drug | 1.12 | 0.84 | 0.67 | 1.04 |
| Tdrp | no change with or without drug | -0.11 | 0.67 | -0.45 | 0.93 |
| Nkx1-2 | no change with or without drug | -0.34 | -1.69 | 1.01 | 0.91 |
| Gins4 | no change with or without drug | 0.22 | 0.84 | -0.22 | 0.96 |
| Stk16 | no change with or without drug | 1.01 | -0.17 | 1.35 | 1.03 |
| Cys1 | no change with or without drug | 0 | 0.17 | 0 | 0.94 |
| Poll | no change with or without drug | 0.22 | 0.51 | 0 | 0.96 |
| Cnga3 | no change with or without drug | -0.56 | 0.17 | -0.56 | 0.89 |
| Nkain1 | no change with or without drug | 0.22 | 0.84 | -0.22 | 0.96 |
| Grap | no change with or without drug | 0 | -1.85 | 1.57 | 0.94 |

Sorted by “z-score of drug to no-drug ratio” (lowest first): 2 of the entries above.
| Target gene | combined z-score class | viability z-score with doxorubicin | viability z-score without drug | z-score of drug to no-drug ratio | doxorubicin viability vs non-targeting |
| --- | --- | --- | --- | --- | --- |
| Nrip3 | no change with or without drug | -0.45 | -0.51 | 0 | 0.9 |
| Smpdl3b | high cell count with doxorubicin only | 2.59 | 0.17 | 2.7 | 1.17 |
